Results taken from paper doi:10.1101/869123.
No constants are given. Whether binding was seen depends on the method and setting. Binding seen in cells or lysates may run through a third protein. A yes stands for co-enrichment or nearness to the bait. Other partners may have been found.

Sequences of proteins named here, by UniProt entry; tags and fusion partners are left off.
UniProt P47756: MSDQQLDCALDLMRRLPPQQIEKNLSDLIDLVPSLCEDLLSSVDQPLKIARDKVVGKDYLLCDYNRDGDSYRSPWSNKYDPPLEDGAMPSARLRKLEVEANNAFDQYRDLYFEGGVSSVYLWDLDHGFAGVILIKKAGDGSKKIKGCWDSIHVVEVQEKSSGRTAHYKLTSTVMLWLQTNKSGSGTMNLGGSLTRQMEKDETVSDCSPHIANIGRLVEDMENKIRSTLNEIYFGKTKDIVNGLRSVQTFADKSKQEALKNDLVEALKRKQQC
UniProt Q99426: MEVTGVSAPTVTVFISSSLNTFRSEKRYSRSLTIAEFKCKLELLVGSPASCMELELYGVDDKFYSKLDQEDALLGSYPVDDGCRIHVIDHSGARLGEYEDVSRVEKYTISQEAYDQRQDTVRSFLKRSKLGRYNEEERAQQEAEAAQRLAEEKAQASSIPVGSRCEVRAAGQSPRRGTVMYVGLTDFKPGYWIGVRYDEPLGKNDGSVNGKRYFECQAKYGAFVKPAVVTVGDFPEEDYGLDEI

The substances below were run against CRIPT (cysteine-rich interactor of PDZ-domain protein), wild type, in lysates of mitotic HeLa cells (human) (UniProt Q9P021) (assay: affinity purification with mass spectrometry).

Row | binding | Substance
1 | binds | APRC1B (printed ARPC1B in the methods), endogenous, mitotic HeLa cells (from UniProt O15143 1-372)
2 | binds | CAPZB, endogenous, mitotic HeLa cells (from UniProt P47756 1-272)
3 | binds | TBCB, endogenous, mitotic HeLa cells (from UniProt Q99426 1-244)
